Experimental data taken from patent US20200048333A1 (THOMAS JEFFERSON UNIVERSITY, published 2020).
Results are given in words; binding and its absence hold for the method and conditions named. Some entries that bind do so weakly or less than the wild type.

Chains of the proteins cited; added tags and fusions are not shown. Lines headed by an entry give the natural chain unless they say otherwise; changes in a name come on top.
UniProt P02452: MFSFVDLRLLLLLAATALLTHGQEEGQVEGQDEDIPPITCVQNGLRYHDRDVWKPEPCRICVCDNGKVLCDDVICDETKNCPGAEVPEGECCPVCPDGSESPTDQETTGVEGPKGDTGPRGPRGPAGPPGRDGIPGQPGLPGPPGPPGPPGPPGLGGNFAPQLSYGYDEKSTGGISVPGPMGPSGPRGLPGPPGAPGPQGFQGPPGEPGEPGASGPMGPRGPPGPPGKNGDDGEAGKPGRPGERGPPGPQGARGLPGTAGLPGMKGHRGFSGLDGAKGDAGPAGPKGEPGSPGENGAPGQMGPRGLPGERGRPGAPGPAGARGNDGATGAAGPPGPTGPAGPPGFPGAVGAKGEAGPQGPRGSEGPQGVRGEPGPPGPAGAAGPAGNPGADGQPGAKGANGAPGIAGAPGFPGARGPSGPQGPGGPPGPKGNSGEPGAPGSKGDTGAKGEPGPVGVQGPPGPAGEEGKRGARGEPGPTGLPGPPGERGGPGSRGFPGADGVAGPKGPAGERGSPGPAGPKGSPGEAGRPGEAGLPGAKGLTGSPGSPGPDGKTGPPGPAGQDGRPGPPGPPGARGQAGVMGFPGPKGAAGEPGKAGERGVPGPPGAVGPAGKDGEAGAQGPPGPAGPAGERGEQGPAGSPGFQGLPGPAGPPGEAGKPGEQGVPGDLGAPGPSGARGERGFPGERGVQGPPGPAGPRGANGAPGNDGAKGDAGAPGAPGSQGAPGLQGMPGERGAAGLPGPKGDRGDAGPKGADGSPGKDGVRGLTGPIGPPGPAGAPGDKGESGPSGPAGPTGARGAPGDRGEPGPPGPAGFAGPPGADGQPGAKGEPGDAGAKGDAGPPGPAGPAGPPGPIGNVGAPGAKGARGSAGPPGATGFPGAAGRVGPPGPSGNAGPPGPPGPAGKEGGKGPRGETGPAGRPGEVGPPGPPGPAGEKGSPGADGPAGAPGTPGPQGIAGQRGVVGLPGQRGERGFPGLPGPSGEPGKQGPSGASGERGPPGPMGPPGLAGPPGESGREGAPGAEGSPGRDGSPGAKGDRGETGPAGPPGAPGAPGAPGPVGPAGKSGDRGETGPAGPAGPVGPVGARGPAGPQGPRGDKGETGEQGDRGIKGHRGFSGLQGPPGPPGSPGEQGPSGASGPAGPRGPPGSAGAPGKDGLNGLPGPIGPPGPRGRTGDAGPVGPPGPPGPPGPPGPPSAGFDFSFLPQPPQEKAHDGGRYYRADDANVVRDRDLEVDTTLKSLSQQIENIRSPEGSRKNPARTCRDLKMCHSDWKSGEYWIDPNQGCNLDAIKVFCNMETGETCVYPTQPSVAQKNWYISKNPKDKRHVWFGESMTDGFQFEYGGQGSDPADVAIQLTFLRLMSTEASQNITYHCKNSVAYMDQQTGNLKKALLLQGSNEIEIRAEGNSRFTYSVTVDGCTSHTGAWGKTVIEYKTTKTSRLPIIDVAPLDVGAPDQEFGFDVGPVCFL
UniProt P08123: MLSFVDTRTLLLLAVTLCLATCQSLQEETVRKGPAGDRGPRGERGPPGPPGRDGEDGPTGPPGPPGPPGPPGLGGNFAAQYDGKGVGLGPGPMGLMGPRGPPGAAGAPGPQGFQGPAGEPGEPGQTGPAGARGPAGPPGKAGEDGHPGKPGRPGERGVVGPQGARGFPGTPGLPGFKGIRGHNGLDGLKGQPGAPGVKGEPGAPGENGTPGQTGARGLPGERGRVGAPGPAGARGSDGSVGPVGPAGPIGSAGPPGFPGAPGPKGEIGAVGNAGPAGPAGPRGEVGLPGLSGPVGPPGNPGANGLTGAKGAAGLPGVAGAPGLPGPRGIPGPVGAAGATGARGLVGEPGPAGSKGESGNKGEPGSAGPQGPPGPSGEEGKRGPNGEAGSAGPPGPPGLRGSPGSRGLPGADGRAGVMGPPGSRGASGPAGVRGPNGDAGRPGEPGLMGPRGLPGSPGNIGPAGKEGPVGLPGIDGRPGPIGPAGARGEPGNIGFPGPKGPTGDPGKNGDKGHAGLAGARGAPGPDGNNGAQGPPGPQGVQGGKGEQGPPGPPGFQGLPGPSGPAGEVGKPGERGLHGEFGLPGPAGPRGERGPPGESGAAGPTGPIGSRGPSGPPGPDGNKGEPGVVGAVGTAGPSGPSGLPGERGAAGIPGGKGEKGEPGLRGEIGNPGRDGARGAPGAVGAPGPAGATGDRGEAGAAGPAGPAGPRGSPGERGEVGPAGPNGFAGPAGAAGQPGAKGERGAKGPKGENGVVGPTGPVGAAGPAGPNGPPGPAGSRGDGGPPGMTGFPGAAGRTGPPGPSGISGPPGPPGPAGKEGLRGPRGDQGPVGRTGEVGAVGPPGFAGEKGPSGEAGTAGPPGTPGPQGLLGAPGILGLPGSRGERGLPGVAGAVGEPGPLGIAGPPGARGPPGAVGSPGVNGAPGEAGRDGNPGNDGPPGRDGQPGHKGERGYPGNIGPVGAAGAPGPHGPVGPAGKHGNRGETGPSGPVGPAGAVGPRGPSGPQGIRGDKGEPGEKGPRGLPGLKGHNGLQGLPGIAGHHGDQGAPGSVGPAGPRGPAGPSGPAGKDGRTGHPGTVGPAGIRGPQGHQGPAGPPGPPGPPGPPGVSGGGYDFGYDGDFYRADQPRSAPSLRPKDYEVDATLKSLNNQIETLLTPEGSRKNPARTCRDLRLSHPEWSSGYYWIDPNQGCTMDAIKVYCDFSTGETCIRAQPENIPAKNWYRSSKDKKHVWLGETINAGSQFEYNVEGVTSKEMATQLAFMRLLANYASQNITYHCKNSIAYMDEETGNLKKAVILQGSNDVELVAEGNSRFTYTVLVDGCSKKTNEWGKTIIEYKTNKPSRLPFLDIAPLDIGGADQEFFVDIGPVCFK

T1: GDFYRA (also: biotinylated (position not given here))
T1 construct: also called biotinylated α2Ct peptide GDFYRA
T1 peptide: GDFYRA

T2: GYDGDF (also: biotinylated (position not given here))
T2 construct: also called biotinylated α2Ct peptide GYDGDF
T2 peptide: GYDGDF

T3: α2Ct fragment GYDGD (human)
T3 construct: One of the overlapping peptides spanning the human α2Ct
T3 peptide: GYDGD

T4: α2Ct fragment DFYRA (human)
T4 construct: One of the overlapping peptides spanning the human α2Ct
T4 peptide: DFYRA

T5: α2Ct fragment DGDFY (human)
T5 construct: One of the overlapping peptides spanning the human α2Ct; also called A2_DGDFY
T5 peptide: DGDFY

T6: α2Ct fragment DFGYD (human)
T6 construct: One of the overlapping peptides spanning the human α2Ct
T6 peptide: DFGYD

T7: α2Ct fragment GYDFG (human)
T7 construct: One of the overlapping peptides spanning the human α2Ct
T7 peptide: GYDFG


How the values were obtained:
GDFYRA = target: T1, GDFYRA; experiment: blot: antibody variant immobilized on nitrocellulose, biotinylated peptide bound, chemiluminescence
GYDGDF = target: T2, GYDGDF; experiment: as above
[1] = target: human procollagen I isolated from human dermal fibroblasts (human) (UniProt P02452+P08123); experiment: biosensor; procollagen I immobilized, scFv injected at various concentrations (panel head: native α2Ct present in collagen I)
α2Ct fragment GYDGD = target: T3, α2Ct fragment GYDGD; experiment: biosensor
α2Ct fragment DFYRA = target: T4, α2Ct fragment DFYRA; experiment: biosensor
α2Ct fragment DGDFY = target: T5, α2Ct fragment DGDFY; experiment: biosensor
α2Ct fragment DFGYD = target: T6, α2Ct fragment DFGYD; experiment: biosensor
α2Ct fragment GYDFG = target: T7, α2Ct fragment GYDFG; experiment: biosensor

| binding (GDFYRA) | binding (GYDGDF) | binding [1] | binding (α2Ct fragment GYDGD) | binding (α2Ct fragment DFYRA) | binding (α2Ct fragment DGDFY) | binding (α2Ct fragment DFGYD) | binding (α2Ct fragment GYDFG) | Binder |
| --- | --- | --- | --- | --- | --- | --- | --- | --- |
| binds | binds | binds | – | – | – | – | – | scFv variant of the AFA consisting of the VL and VH domains connected via a peptide linker (scFv, V domains shown, not shown: small tags and cut ends, The domain order VL-linker-VH follows the wording 'VL and VH domains connected via a peptide linker'; also called single chain antibody) VL: DIVMSQSPSSLAVSAGEKVTMSCKSSQSLLNSRTRKNNLAWYQQKPGQSPKLLIYWASTRESGVPDRFTGSGSGTDFTLTISSVQAEDLAVYYCKQSYNLWTFGGGTKLEIKR V domain: AQIQLVQSGPELKKPGETVKISCKASGYTFTDYPLHWVKQAPGKGLQWMAWINTETGEPTYADDFTGRFAFSLETSASTAYLQINNLKNEDTATYFCVRGYYYYWGQGTTLSVSS |
| – | – | – | binds | binds | binds | binds | binds | full-length anti-fibrotic antibody (AFA), monoclonal anti-collagen I antibody against the α2(I) C-telopeptide (antibody, V domains shown, The control was human IgG; also called full-length AFA; Full-length AFA antibody) VH: AQIQLVQSGPELKKPGETVKISCKASGYTFTDYPLHWVKQAPGKGLQWMAWINTETGEPTYADDFTGRFAFSLETSASTAYLQINNLKNEDTATYFCVRGYYYYWGQGTTLSVSS VL: DIVMSQSPSSLAVSAGEKVTMSCKSSQSLLNSRTRKNNLAWYQQKPGQSPKLLIYWASTRESGVPDRFTGSGSGTDFTLTISSVQAEDLAVYYCKQSYNLWTFGGGTKLEIKR |
